Test results taken from paper PMC8779605.

Test system: RNS1-DBD (Metarhizium robertsii)
Test: EMSA
Conditions: LightShift Chemiluminescent EMSA kit (Thermo Fisher); pH and temperature not stated; recombinant protein

Sequence: TGCCCGTTGGGTTTTACGACAAGACCTTCATTGGCCGGAGCTCTCGTCT (double strand) [AbaA promoter BM2 probe]
- binding result: no binding

The exact form of at least one protein or probe is not confirmed. Negatives hold for the conditions tested.
